For seven molecules, binding results are on record in patent publication US20240092867A1.

Sequences of proteins named here, by UniProt entry; tags and fusion partners are left off. A change or cut given only in a name is not applied to a line headed by its entry. A line that says so, or that is headed by a name, gives the form on record, which may keep a tag or linker. Residues count along the entry.
UniProt O75056, residues 48-387: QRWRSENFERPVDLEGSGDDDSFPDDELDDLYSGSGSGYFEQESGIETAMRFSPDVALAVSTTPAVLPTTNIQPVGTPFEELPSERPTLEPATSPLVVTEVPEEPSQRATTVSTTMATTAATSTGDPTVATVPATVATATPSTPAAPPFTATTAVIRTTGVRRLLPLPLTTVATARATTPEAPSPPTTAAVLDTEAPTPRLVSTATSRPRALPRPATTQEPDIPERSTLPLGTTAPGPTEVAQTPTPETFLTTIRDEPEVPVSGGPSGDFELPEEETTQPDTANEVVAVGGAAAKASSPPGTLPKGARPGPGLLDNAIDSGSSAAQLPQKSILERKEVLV
vascular endothelial growth factor (VEGF)-A165 (P15692, form named): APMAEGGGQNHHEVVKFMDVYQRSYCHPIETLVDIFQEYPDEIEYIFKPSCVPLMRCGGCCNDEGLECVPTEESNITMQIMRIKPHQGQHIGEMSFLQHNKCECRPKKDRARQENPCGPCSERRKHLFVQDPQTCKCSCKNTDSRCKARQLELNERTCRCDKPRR
recombinant human VEGF-A145 (P15692, form named): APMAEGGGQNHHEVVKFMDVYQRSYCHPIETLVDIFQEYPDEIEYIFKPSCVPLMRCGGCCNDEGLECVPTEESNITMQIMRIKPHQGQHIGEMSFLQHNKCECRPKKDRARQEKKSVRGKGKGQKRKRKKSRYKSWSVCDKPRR
placental growth factor (PlGF)-2 (P49763, form named): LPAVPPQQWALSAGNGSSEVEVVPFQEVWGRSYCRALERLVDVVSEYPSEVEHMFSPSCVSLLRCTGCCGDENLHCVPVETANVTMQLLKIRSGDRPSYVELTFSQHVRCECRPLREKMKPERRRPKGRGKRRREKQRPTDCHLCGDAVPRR
CXCL-12α (P48061, residues 22-89): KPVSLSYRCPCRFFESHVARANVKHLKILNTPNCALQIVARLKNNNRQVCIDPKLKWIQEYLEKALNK
CXCL-12γ (P48061, form named): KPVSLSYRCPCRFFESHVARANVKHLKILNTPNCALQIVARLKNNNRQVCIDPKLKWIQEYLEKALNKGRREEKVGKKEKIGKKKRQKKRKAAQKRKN
UniProt P01127, residues 82-190: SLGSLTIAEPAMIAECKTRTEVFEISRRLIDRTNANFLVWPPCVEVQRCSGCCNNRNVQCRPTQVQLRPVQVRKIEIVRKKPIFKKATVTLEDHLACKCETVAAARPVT
UniProt P09038, residues 143-288: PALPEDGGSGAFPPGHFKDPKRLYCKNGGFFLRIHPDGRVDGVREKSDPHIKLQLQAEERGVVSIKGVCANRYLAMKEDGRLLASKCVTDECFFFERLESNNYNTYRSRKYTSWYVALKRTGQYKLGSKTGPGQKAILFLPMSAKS

The target in assay [1] is recombinant human syndecan-3 (human) (UniProt O75056). As to the kind of experiment: ELISA, peptide coated, syndecan 1 µg/mL, anti-His detection. For orientation: An ELISA detects its analyte on a solid surface through an enzyme-linked reagent.
Assay [2] addresses vascular endothelial growth factor (VEGF)-A165 (human) (UniProt P15692). As to the kind of experiment: ELISA, HBD peptide coated, GF 1 µg/mL.
For assay [3], the target named is placental growth factor (PlGF)-2 (human) (UniProt P49763). Put plainly: ELISA, HBD peptide coated, GF 1 µg/mL.
In the next assay the target is CXCL-12γ (human) (UniProt P48061). Put plainly: ELISA, HBD peptide coated, GF 1 µg/mL.
The target in assay [4] is platelet-derived growth factor (PDGF)-BB (human) (UniProt P01127). Put plainly: ELISA, HBD peptide coated, GF 1 µg/mL.
Assay [5] deals with fibroblast growth factor (FGF)-2 (human) (UniProt P09038). As to the kind of experiment: ELISA, HBD peptide coated, GF 1 µg/mL.
A further assay deals with CXCL-12α (human) (UniProt P48061). Put plainly: ELISA; vWF A1 HBD peptide coated (10 µg/mL, legend paragraph 67), 1 µg/mL CXCL-12α in solution, detected with anti-CXCL-12 antibody [panel C].
The target of assay [6] is vascular endothelial growth factor (VEGF)-A165 (human) (UniProt P15692). As to the kind of experiment: ELISA, peptide coated 50 nM, VEGF-A 1 µg/mL.
Assay [7] concerns the target recombinant human VEGF-A145 (human) (UniProt P15692). As to the kind of experiment: ELISA, peptide coated 50 nM, VEGF-A 1 µg/mL.

Results are given in words; binding and its absence hold for the method and conditions named. Some results given as binding are weak or reduced against the parent protein; the word gives no strength.

On to TPGLGPRGLQATARKASRRSRQPARHPACML [laminin α5 3300-3330 peptide (Linker)], for which, in assay [1], the binding result is on record as “binds”.
Same read-out and setting: as for PLFLLHKKGKNLSKPKASQNKKGGKSK [laminin α4 1408-1434 peptide (Linker)], the entry is “binds”.
Take YIGLKDRKRPSELRRIASQVKYA [vWF A1 HBD peptide (23 residues)]: the binding result (in assay [2]; in [3]; with CXCL-12γ (human); in assay [4]; in assay [5]; with CXCL-12α (human)) was “binds” each time.
In the case of YIGLKDRKRPSELRRIASQVKYAC [vWF A1 HBD (24 residues, C-terminal Cys)], the binding entry in assay [6] and in assay [7] was “binds” in each case.
Consider RLVFALGTDGKKLRIKSKEKCNDGK [laminin α3 3043-3067 peptide (LG4)], for which the binding entry in assay [1] is “binds”.
On to RQRSRPGRWHKVSVRWEKNR [laminin α5 3417-3436 peptide (LG4)], for which, in [1], the binding result was “binds”.
The same measure, in the same setting: as for TLFLAHGRLVYMFNVGHKKLKIR [laminin α4 1521-1543 peptide (LG4)], the entry is “binds”.
